Construct, isoform or probe ends are uncertain for at least one entry.
Biological target: Neutravidin (UniProt P02701)
Test: EMSA
Conditions: PNA GAA*AGT*GAA*AGT, biotin at gamma position via Lys at each *; binding via biotin on PNA; neutravidin-dependent retardation; also nanopore 200 mV; purified native protein; protein details: Pierce/Thermo Scientific

Sequences of proteins named here, by UniProt entry; tags and fusion partners are left off. Residues count along the entry.
UniProt P02701, 25-152: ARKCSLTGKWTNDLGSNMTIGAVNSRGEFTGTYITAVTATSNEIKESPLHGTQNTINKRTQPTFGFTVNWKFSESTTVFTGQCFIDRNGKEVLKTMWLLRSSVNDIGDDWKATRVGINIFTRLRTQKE

GAAAGTGAAAGT: binds.
